{"source": "patent US7799530B2", "about": "“Genetic polymorphisms associated with cardiovascular disorders and drug response, methods of detection and uses thereof” (Celera Corporation, priority 2005, dated 2010)", "key": {"[1]": {"tested_on": "progression of coronary atherosclerosis", "conditions": "CETP B2B2 patients; cited from earlier work"}, "[2]": {"tested_on": "clinical events and LDL-cholesterol in hypercholesterolemic subjects", "conditions": "WOSCOPS, 5 year; cited from earlier work"}, "[3]": {"tested_on": "MI / coronary events in Scottish men with hypercholesterolemia", "test": "WOSCOPS nested case-control study: MI/CHD in pravastatin- vs placebo-treated patients stratified by SNP genotype", "assay_type": "in vivo, human", "conditions": "carriers of risk allele (about 60% of population)", "description": "In order to identify genetic markers associated with acute coronary events (e.g. MI, stroke, unstable angina, congestive heart failure, etc.) or response to statin treatment for the prevention of coronary events, samples were genotyped in two clinical trials: the Cholesterol and Recurrent Events (CARE) study (a randomized multicentral double-blinded trial on secondary prevention of acute coronary events with pravastatin; Sacks et al., Am. J. Cardiol. 68: 1436-1446[1991]), and the West of Scotland Coronary Prevention Study (WOSCOPS) study (Shepherd et al., N Eng J Med 333 (20), pp. 1301-7, Nov. 16, 1995; Packard et al., N Eng J Med 343 (16), pp. 1148-55, Oct. 19, 2000). […]\nIn both the CARE and WOSCOPS studies, an association analysis was performed for each of the two modes of inheritance, dominant and recessive. […] Estimates of odds ratios and corresponding ninety-five percent confidence intervals were calculated. […] The odds ratio is approximately the same (1.6-1.7) when calculated for the dominant mode of inheritance (a genotype with one or two minor alleles vs. none), with a P value less than or equal to 0.01 in both studies.\nAlso analyzed was whether hCV3054799 is associated with response to statin treatment (specifically, a decreased risk of MI as a result of treatment with pravastatin). […]"}}, "note": "For at least one compound, name, drawing or mass did not settle the structure.", "data": [{"smiles": "CC[C@H](C)C(=O)O[C@H]1C[C@H](O)C=C2C=C[C@H](C)[C@H](CC[C@@H](O)C[C@@H](O)CC(=O)O)[C@H]21", "note": "[pravastatin]", "values": [{"measurement": "benefit from pravastatin (progression of atherosclerosis)", "setting": "[1]", "value": "no benefit"}, {"measurement": "decrease in clinical events compared to placebo", "setting": "[2]", "value": 29, "unit": "%"}, {"measurement": "reduction in LDL-cholesterol (LDL-C)", "setting": "[2]", "value": 26, "unit": "%"}, {"measurement": "Effect of pravastatin treatment in carriers of the hCV3054799 risk allele", "setting": "[3]", "value": "benefited"}]}]}
